From PubChem BioAssay AID540276 (National Center for Advancing Translational Sciences (NCATS), 2011)
About 5,400 (1.8%) of roughly 300,000 compounds were called active. The shares of active, inactive and inconclusive entries below differ from those in the screen. Calls follow the shape of the full dose curve; tested in HEK293 cells. A potency beside an inconclusive call is a rough fit, not a confirmed value.

Assay: qHTS for inhibitors of binding or entry into cells for Marburg Virus
Settings: Marburg virus pseudotyped entry inhibition, cell reporter; series mostly up to 37.8 µM
Potency is read from the fitted curve at half-maximal effect.

Q: Which Potency does the source give for `Cc1ccc(NC(=O)CCCn2nc(C)c3sc4ccccc4c3c2=O)c(Cl)c1` here?
A: inconclusive: 3.55 µM [activator, full curve, poor fit]

Q: Which Potency does the source give for `CC1=C(C(=O)O)N2C(=O)C(NC(=O)CCCC(=O)O)C2SC1` (stereo not drawn) here?
A: inconclusive: 5.62 µM [activator, single point]

Q: Which Potency does the source give for `O=C(c1ccc2c(c1)N(Cc1ccc(Cl)cc1)C(=O)c1ccccc1S2(=O)=O)N1CCc2ccccc21` here?
A: inconclusive: 3.98 µM [inhibitor, full curve]

Q: Which Potency does the source give for `Fc1ccc(N2CCN(C(c3cccs3)c3nnnn3C3CCCC3)CC2)cc1` (stereo not drawn) here?
A: inconclusive: 29.1 µM [inhibitor, single point]

Q: Which Potency does the source give for `Cc1cc2ncc(C(=O)N=CN(C)C)cn2n1` here?
A: inconclusive: 7.08 µM [activator, partial curve]

Q: For `CCOc1ccc(N2C(=O)C3C(C2=O)C3(c2ccccc2)c2ccccc2)cc1` (stereo not drawn), which Potency is on record?
A: inconclusive: 35.5 µM [inhibitor, single point]

Q: For `O=C(OCC(=O)c1c[nH]c2ccccc12)C1=COCCO1`, which Potency is on record?
A: inactive

Q: With `Cc1ccc(NC(=O)Cn2cc(C(=O)C3CCCCC3)c3ccccc32)c(C)c1` as the molecule, how does the Potency read?
A: inconclusive: 0.891 µM [inhibitor, full curve, poor fit]

Q: Which Potency does the source give for `Cc1nn(CC(=O)N(C)c2c(N)n(Cc3ccccc3)c(=O)[nH]c2=O)c(C)c1[N+](=O)[O-]` here?
A: inconclusive: 5.62 µM [activator, single point]

Q: Which Potency does the source give for `CC(C)(/C=N/O)/[N+]([O-])=C/c1ccco1` here?
A: inactive

Q: With `COc1ccc(-c2csc(NC(=O)C3=COCCO3)n2)cc1OC` as the molecule, how does the Potency read?
A: inconclusive: 5.62 µM [activator, single point]

Q: Which Potency does the source give for `CCCNc1nc2c(c(=O)n(C)c(=O)n2C)n1CC(O)COc1ccccc1` (stereo not drawn) here?
A: inactive

Q: Which Potency does the source give for `COc1ccccc1C(=O)N1C(CC(=O)Nc2cc(Cl)ccc2C)C(=O)NC2CCCCC21` (stereo not drawn) here?
A: inconclusive: 29.1 µM [inhibitor, single point]

Q: Which Potency does the source give for `COc1ccc(NC(=O)c2oc3ccccc3c2NC(=O)COc2ccc(F)cc2)c(OC)c1` here?
A: inactive

Q: Which Potency does the source give for `O=C(Nc1ccc2c(c1)OCO2)c1cc(-c2cccc(O)c2)on1` here?
A: inconclusive: 14.1 µM [inhibitor, partial curve, poor fit]

Q: For `O=S1(=O)CCN(Cc2ccc(Cl)c(Cl)c2)CC1`, which Potency is on record?
A: inactive

Q: Which Potency does the source give for `Cc1ccc(S(=O)(=O)Nc2cccc(C(=O)NCC(c3ccco3)N3CCCC3)c2)cc1F` (stereo not drawn) here?
A: inconclusive: 6.31 µM [inhibitor, single point]

Q: Which Potency does the source give for `Cc1ccc(Nc2nc(C)c(NC(=O)c3ccc(C)cc3)c(Nc3ccc(C)cc3)n2)cc1` here?
A: inconclusive: 17.8 µM [inhibitor, partial curve, poor fit]
